Laboratory results as given in the supplement of paper PMC10849652.
The list shows a part of the results.

The chains behind the UniProt entries cited, without tags or fusion partners. Where a name states a change or a piece, a line headed by the entry shows the natural chain unless it says otherwise.
UniProt Q8N5G0: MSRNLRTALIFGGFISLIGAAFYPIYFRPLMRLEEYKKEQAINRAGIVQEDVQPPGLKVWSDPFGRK
UniProt O60271: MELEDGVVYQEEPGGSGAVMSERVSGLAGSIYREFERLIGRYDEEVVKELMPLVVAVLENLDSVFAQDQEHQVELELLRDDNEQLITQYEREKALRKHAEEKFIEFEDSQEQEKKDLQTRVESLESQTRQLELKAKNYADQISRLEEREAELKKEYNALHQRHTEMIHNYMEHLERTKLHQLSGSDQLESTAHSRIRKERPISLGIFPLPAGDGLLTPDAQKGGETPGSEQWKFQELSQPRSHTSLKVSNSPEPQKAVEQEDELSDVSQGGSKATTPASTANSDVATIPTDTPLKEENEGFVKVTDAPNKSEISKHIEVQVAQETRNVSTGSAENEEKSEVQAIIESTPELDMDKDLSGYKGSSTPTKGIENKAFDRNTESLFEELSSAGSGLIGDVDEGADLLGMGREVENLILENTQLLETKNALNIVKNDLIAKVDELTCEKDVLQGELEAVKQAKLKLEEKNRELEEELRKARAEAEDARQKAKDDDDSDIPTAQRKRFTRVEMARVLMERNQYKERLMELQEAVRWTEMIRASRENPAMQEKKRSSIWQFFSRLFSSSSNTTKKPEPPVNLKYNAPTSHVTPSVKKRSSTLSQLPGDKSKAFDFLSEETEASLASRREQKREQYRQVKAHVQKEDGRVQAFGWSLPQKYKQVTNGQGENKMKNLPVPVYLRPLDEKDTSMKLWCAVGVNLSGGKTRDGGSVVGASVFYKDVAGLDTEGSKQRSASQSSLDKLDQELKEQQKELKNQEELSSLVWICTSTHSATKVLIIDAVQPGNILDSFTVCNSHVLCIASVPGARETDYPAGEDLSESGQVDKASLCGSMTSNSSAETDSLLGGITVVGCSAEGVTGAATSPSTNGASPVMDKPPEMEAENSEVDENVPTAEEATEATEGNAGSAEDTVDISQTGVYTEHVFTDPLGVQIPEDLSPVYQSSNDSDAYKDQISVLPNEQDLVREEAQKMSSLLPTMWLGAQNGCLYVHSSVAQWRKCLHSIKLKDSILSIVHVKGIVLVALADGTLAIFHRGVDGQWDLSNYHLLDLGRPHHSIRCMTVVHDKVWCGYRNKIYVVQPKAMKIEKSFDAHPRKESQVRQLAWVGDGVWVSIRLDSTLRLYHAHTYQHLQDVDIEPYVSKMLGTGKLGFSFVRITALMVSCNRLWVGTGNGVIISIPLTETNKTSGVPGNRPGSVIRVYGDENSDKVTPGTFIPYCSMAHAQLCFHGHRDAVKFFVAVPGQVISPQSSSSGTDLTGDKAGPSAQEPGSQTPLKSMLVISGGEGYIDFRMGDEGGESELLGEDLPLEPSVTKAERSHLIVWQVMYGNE
UniProt P08294: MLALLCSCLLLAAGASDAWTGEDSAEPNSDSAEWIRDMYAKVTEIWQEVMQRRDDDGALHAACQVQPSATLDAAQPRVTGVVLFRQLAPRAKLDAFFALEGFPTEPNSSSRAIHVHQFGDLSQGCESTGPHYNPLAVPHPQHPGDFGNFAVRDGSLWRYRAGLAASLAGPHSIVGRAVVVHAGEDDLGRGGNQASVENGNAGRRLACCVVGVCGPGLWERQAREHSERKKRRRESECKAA
UniProt Q99717: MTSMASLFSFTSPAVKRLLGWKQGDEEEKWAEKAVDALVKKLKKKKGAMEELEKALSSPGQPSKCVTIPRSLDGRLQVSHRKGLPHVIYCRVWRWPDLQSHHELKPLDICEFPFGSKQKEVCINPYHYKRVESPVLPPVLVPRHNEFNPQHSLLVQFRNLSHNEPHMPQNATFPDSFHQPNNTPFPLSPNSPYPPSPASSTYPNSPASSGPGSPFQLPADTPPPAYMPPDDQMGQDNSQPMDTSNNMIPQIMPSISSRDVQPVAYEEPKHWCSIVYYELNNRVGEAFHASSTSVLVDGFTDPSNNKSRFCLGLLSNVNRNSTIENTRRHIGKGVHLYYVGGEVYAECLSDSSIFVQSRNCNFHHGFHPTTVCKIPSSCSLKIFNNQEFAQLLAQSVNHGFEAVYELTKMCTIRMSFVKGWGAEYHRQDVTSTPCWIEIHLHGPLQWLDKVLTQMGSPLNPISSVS
UniProt P35711: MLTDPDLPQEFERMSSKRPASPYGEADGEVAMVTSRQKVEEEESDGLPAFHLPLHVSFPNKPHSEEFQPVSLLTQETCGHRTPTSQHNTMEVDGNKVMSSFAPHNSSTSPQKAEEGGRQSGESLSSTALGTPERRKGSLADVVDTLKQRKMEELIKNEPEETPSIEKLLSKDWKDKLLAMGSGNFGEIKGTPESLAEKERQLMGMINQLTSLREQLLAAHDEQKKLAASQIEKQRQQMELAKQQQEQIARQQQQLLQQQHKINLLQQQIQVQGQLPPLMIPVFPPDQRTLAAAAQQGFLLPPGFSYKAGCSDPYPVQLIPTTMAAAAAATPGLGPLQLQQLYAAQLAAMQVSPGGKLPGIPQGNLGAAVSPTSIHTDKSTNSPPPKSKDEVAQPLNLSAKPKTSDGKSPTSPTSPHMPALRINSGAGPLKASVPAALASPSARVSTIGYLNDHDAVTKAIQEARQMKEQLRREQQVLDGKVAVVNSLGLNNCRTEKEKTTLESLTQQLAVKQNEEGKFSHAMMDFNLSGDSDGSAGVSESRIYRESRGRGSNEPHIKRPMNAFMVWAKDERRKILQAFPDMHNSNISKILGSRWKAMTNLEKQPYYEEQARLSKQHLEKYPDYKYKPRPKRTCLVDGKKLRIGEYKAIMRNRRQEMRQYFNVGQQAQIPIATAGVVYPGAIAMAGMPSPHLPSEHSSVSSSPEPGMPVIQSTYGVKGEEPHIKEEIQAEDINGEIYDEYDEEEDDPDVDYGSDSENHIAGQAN
UniProt P17405: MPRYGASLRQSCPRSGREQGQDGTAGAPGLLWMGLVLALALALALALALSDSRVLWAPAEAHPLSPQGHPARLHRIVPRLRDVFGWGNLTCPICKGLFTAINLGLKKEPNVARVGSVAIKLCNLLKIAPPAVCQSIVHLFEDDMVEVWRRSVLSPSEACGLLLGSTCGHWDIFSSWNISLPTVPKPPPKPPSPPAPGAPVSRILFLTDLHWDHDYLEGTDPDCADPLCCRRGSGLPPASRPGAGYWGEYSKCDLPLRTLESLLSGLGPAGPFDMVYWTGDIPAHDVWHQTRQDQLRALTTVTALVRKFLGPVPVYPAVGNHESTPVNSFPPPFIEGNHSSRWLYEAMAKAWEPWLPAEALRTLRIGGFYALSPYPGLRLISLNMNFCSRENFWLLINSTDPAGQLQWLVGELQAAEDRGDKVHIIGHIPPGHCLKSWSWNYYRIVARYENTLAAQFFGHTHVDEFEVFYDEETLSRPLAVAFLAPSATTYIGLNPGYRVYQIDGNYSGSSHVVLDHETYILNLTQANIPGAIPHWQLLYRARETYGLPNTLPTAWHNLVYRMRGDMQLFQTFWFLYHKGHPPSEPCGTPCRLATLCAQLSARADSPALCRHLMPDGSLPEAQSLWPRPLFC
UniProt Q9H3E2: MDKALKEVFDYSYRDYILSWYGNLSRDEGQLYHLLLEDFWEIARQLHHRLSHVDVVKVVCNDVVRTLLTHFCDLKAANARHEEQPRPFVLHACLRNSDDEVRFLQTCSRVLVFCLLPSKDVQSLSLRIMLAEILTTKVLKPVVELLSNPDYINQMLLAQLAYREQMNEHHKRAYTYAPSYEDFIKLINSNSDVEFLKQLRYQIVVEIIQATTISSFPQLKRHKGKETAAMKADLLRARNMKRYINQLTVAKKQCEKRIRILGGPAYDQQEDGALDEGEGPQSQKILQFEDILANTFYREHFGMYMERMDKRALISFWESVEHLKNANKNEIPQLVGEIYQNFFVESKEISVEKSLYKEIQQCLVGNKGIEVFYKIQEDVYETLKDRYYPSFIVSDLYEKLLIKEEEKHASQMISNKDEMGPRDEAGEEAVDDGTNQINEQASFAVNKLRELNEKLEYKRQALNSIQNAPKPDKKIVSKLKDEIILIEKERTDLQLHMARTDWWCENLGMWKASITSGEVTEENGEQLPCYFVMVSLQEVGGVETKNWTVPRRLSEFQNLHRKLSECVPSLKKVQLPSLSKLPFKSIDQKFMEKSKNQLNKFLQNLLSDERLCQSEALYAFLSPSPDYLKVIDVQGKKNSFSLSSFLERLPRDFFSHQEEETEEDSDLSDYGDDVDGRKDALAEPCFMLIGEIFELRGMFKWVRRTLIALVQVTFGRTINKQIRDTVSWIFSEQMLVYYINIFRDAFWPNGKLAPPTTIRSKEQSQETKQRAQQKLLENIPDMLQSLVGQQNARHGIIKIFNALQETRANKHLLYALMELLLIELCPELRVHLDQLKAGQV
UniProt O60641: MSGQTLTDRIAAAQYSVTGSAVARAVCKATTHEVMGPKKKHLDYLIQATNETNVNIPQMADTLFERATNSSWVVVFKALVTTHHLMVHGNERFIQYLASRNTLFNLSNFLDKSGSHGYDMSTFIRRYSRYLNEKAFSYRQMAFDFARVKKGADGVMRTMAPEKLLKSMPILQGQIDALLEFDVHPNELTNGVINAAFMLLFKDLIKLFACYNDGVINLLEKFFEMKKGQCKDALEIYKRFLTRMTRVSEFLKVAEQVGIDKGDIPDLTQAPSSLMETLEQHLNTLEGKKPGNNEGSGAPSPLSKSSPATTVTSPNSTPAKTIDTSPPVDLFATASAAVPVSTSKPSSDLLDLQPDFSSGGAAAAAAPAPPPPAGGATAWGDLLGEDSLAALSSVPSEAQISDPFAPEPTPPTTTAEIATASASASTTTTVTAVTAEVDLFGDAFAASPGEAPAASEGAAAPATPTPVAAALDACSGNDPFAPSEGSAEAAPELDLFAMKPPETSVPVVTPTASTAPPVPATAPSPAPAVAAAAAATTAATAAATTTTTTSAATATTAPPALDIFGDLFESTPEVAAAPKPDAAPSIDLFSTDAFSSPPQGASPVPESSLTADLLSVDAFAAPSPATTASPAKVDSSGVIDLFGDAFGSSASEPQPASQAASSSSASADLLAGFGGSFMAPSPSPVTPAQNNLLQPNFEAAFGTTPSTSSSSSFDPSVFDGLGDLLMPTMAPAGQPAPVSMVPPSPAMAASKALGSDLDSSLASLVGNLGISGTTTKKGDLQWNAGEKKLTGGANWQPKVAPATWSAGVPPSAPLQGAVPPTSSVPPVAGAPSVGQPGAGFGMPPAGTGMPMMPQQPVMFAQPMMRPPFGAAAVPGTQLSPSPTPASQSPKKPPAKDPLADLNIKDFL
UniProt Q7Z3B0: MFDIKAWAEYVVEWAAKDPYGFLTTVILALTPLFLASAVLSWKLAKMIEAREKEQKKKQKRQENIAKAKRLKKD
UniProt Q9NRS6: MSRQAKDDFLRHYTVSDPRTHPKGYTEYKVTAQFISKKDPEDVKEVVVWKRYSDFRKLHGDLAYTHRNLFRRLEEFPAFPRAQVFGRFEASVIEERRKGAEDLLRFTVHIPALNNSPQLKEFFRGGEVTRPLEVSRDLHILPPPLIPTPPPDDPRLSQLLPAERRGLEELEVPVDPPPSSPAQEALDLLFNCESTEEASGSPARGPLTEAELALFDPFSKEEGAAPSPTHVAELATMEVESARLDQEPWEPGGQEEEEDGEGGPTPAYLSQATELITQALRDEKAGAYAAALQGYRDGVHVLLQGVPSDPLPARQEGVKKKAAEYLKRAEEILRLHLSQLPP
UniProt P53814: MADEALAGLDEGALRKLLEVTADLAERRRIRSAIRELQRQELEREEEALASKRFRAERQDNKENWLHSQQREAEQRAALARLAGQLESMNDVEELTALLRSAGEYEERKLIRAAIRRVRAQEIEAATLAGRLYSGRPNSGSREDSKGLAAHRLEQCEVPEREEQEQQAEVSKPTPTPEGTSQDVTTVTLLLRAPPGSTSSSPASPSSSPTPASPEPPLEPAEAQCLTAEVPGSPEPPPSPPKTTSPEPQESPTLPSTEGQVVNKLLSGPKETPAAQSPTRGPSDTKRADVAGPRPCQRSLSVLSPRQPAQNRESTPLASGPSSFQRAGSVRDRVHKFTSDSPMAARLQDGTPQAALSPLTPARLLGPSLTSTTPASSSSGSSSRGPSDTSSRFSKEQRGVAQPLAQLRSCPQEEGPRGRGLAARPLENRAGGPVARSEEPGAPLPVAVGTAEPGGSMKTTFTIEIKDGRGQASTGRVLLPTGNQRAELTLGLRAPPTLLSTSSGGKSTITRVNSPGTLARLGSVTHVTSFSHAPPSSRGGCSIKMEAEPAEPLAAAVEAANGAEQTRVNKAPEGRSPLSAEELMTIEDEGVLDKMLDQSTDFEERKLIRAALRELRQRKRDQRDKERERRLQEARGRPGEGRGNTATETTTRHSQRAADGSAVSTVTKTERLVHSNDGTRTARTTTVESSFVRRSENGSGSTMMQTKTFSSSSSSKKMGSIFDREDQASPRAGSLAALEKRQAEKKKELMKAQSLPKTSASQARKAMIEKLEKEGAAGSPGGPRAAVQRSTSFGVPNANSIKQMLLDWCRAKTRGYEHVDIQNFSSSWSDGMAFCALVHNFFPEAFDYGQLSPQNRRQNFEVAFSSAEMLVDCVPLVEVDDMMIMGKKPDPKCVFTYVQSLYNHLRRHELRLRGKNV

Tests used:
Assay in all cases: log2 fold change, soluble protein after heating vs DMSO (PISA); higher = thermal stabilisation; K562 cells, 10 uM, 30 min; active = over 0.2 and 3.5 SD of the protein, either way, in both replicates (recomputed)
[1] = compound: CC1=C(C=C(C=C1)NC(=O)C2=CC(=CC=C2)C(C)(C)C#N)NC3=CC4=C(C=C3)N=CN(C4=O)C
Outline: (§1)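 Values are thermal stability changes relative to control samples and are taken from duplicates. They are stated as log2 fold changes. Before quantification by TMTpro 16plex LC-MS/MS with equalised channel sums, K562 cells at 2×10^6 cells/mL were treated with 10 μM compound for 30 min, heated in aliquots for 3 min across 48°C-58°C, pooled, extracted in PBS with 0.5% NP-40 at 4°C, and centrifuged at 21,000xg for 90 min to give the soluble supernatant.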

[2] = compound: CC1=NC(=CC=C1)C2=C(N=C(N2)C(C)(C)C)C3=CC4=NC=CN=C4C=C3
Outline: as §1

[3] = compound: CC[C@@H]1C(=O)N(C)c2cnc(Nc3ccc(C(=O)NC4CCN(C)CC4)cc3OC)nc2N1C1CCCC1
Outline: as §1

[4] = compound: CN1C2=C(C3=C1C(=O)N(N=C3)CC4=CC(=CC=C4)N)SC(=C2)S(=O)C
Outline: as §1

[5] = compound: CC1=C(C=C(C=C1)NC(=O)C2=CC(=CC=C2)N(C)C)NC(=O)C3=CC=C(C=C3)O
Outline: as §1

[6] = compound: CC1=CC=C(C=C1)SC2=C3C=C(SC3=CN=C2)C(=O)N
Outline: as §1

Nexturastat A = compound: CCCCN(Cc1ccc(C(=O)NO)cc1)C(=O)Nc1ccccc1 [Nexturastat A]
Outline: as §1

vemurafenib = compound: CCCS(=O)(=O)Nc1ccc(F)c(C(=O)c2c[nH]c3ncc(-c4ccc(Cl)cc4)cc23)c1F [vemurafenib]
Outline: as §1

[7] = compound: CCCS(=O)(=O)Nc1ccc(F)c(C(=O)c2c[nH]c3ncc(Cl)cc23)c1F
Outline: as §1

[8] = compound: CCCc1cc(C)[nH]c(=O)c1CNC(=O)c1cc(-c2ccnc(N3CCN(C)CC3)c2)cc2c1cnn2C(C)C
Outline: as §1

givinostat = compound: CCN(CC)Cc1ccc2cc(COC(=O)Nc3ccc(C(=O)NO)cc3)ccc2c1 [givinostat]
Outline: as §1

barasertib = compound: CCN(CCCOc1ccc2c(Nc3cc(CC(=O)Nc4cccc(F)c4)[nH]n3)ncnc2c1)CCOP(=O)(O)O [barasertib]
Outline: as §1

volasertib = compound: CC[C@@H]1C(=O)N(C)c2cnc(Nc3ccc(C(=O)N[C@H]4CC[C@H](N5CCN(CC6CC6)CC5)CC4)cc3OC)nc2N1C(C)C [volasertib]
Outline: as §1

[9] = compound: CC[C@H](C)N1C=C(C2=C(C=C(C=C21)C3=CN=C(C=C3)N4CCNCC4)C(=O)NCC5=C(C=C(NC5=O)C)C)C
Outline: as §1

epoxomicin = compound: CC[C@H](C)[C@@H](C(=O)N[C@@H]([C@@H](C)O)C(=O)N[C@@H](CC(C)C)C(=O)[C@]1(CO1)C)NC(=O)[C@H]([C@@H](C)CC)N(C)C(=O)C [epoxomicin]
Outline: as §1

[10] = compound: CCn1c(C(=O)N(C2CC2)C2CC2)cc2c3c(ncn3C)c(Nc3cc(C)n(C)n3)nc21
Outline: as §1

[11] = compound: CCn1cc(-c2ccnc3[nH]c(-c4cccc(CN(C)C)c4)cc23)c(-c2ccc(NC(=O)N(C)C)cc2)n1
Outline: as §1

[12] = compound: CN(C)CC(=O)Nc1ccc2[nH]c(=O)c3ccccc3c2c1
Outline: as §1

rosiglitazone = compound: CN(CCOC1=CC=C(C=C1)C[C@H]2C(=O)NC(=O)S2)C3=CC=CC=N3 (racemic) [rosiglitazone]
Outline: as §1

[13] = compound: CN1CCC(CNc2ccc3ncc(-c4cccc(OC(F)(F)F)c4)n3n2)CC1
Outline: as §1

Measured: log2 fold change

SP2 (UniProt Q02086)
inactive: [1] -0.032 | [2] -0.122 | [3] -0.289 | [4] 0.372

SMYD3 (UniProt Q9H7B4)
inactive: [1] 0.194 | [5] 0.053 | [6] 0.033 | Nexturastat A 0.067 | vemurafenib 0.253 | [7] 0.203 | [8] 0.199 | givinostat -0.016 | barasertib 0.141 | volasertib -0.382 | [9] 0.156 | epoxomicin 0.155 | [10] 0.053 | [11] 0.025 | [12] -0.085 | rosiglitazone 0.015 | [4] 0.07 | [13] 0.055

SNTB2 (UniProt Q13425)
inactive: [1] -0.036 | [5] -0.214 | [6] -0.055 | Nexturastat A 0.001 | vemurafenib 0.033 | [7] 0.041 | barasertib -0.022 | [3] 0.111 | volasertib -0.258 | [9] 0.021 | epoxomicin -0.193 | [11] -0.055 | [12] 0.079 | rosiglitazone -0.028 | [4] 0.013 | [13] -0.121

SMIM20 isoform 2 (UniProt Q8N5G0)
active: epoxomicin 0.483
inactive: [1] 0.01 | [5] 0.008 | [6] -0.052 | Nexturastat A 0.006 | vemurafenib 0.148 | [7] -0.059 | [8] -0.024 | givinostat -0.102 | barasertib -0.026 | [3] 0.069 | volasertib 0.048 | [9] -0.033 | [11] -0.065 | [12] 0.007 | [4] 0.051 | [13] 0.002

SMCR8 (UniProt Q8TEV9)
inactive: [1] -0.058 | [6] -0.069 | [2] -0.072 | Nexturastat A 0.048 | [7] 0.06 | [8] -0.073 | givinostat 0.016 | barasertib 0.03 | [3] -0.028 | volasertib -0.039 | [9] 0.009 | epoxomicin 0.021 | [10] -0.017 | [11] -0.035 | rosiglitazone 0.033 | [4] -0.093 | [13] -0.097

SPAG9 isoform 4 (UniProt O60271)
inactive: [1] 0.184 | [5] -0.025 | [2] -0.038 | vemurafenib 0.174 | [8] 0.028 | givinostat 0.021 | barasertib 0.176 | [3] -0.192 | [9] 0.093 | [12] -0.093

SMIM13 (UniProt P0DJ93)
inactive: [1] -0.132 | [5] -0.119 | [6] 0.123 | [7] 0.124 | [8] -0.021 | barasertib 0.073 | [3] -0.049 | volasertib -0.116 | [9] 0.002 | rosiglitazone -0.029

SOD3 (UniProt P08294)
inactive: [1] 0.016 | [6] 0.331 | vemurafenib 0.005 | [7] -0.08 | [8] -0.306 | volasertib 0.313 | [11] 0.004 | [12] 0.047 | [4] 0.011 | [13] -0.134

SMAD5 (UniProt Q99717)
inactive: [1] 0.02 | [5] -0.042 | [2] 0.003 | Nexturastat A 0.151 | vemurafenib 0.016 | [8] -0.063 | givinostat -0.034 | barasertib 0.16 | [9] 0.081 | epoxomicin 0.082 | [10] -0.126 | [11] -0.055 | [12] -0.065 | rosiglitazone 0.072 | [4] 0.082 | [13] 0.087

SMARCB1 (UniProt Q12824)
inactive: [1] 0.188 | [2] 0.101 | vemurafenib 0.065 | [3] -0.058 | [11] 0.053 | [12] -0.116 | [4] 0.127 | [13] -0.222

SOX5 (UniProt P35711)
inactive: [1] -0.125 | [5] 0.004 | [6] -0.144 | [2] 0.02 | vemurafenib -0.05 | [7] -0.063 | [8] 0.042 | givinostat 0.013 | barasertib -0.119 | volasertib -0.082 | [9] 0.014 | [12] -0.062

SMPD1 (UniProt P17405)
inactive: [1] 0.218 | [5] 0.321 | [6] 0.088 | [2] -0.023 | vemurafenib 0.157 | [7] 0.067 | [8] -0.534 | volasertib -0.136 | [11] 0.169 | [12] 0.351 | [4] 0.04 | [13] -0.437

SNX25 (UniProt Q9H3E2)
inactive: [1] -0.179 | [6] -0.333 | [2] 0.006 | [7] 0.085 | [8] 0.059 | givinostat 0.151 | volasertib -0.716 | [9] -0.11 | [10] -0.166 | [4] 0.12

SNAP91 (UniProt O60641)
inactive: [1] 0.009 | [5] 0.045 | [2] 0.091 | Nexturastat A 0.02 | vemurafenib -0.003 | [8] -0.003 | givinostat 0.024 | barasertib 0.061 | [3] 0.029 | [9] 0.028 | epoxomicin 0.078 | [10] 0.016 | [11] -0.065 | [12] 0.055 | rosiglitazone -0.085 | [4] -0.089 | [13] 0.119

SMIM15 (UniProt Q7Z3B0)
inactive: [1] 0.083 | [2] 0.111 | Nexturastat A -0.144 | vemurafenib 0.143 | [8] -0.026 | givinostat -0.051 | barasertib -0.095 | [3] -0.11 | [9] -0.006 | epoxomicin -0.348 | [10] 0.044 | [11] -0.161 | [12] 0.05 | rosiglitazone -0.105 | [4] -0.051 | [13] 0.227

SNX2 isoform 2 (UniProt O60749)
inactive: [1] 0 | [6] -0.003 | [2] -0.039 | Nexturastat A 0.484 | vemurafenib -0.026 | [7] -0.144 | barasertib -0.054 | [3] -0.194 | volasertib -0.06 | epoxomicin 0.034 | [12] -0.161 | [4] 0.086

SNX19 (UniProt Q92543)
inactive: [1] 0.084 | [6] -0.019 | [2] -0.037 | Nexturastat A -0.016 | [7] 0.107 | givinostat 0.003 | [3] -0.089 | volasertib -0.276 | epoxomicin -0.082 | [10] -0.175

Quoted from above (two entries):
SNX25 (UniProt Q9H3E2)
inactive: [1] -0.179 | [6] -0.333 | [2] 0.006 | [7] 0.085 | [8] 0.059 | givinostat 0.151 | volasertib -0.716 | [9] -0.11 | [10] -0.166 | [4] 0.12

SNAP91 (UniProt O60641)
inactive: [1] 0.009 | [5] 0.045 | [2] 0.091 | Nexturastat A 0.02 | vemurafenib -0.003 | [8] -0.003 | givinostat 0.024 | barasertib 0.061 | [3] 0.029 | [9] 0.028 | epoxomicin 0.078 | [10] 0.016 | [11] -0.065 | [12] 0.055 | rosiglitazone -0.085 | [4] -0.089 | [13] 0.119

(cont.)

SNX15 (UniProt Q9NRS6)
inactive: [1] -0.25 | [5] -0.009 | [6] -0.015 | [2] -0.089 | vemurafenib -0.122 | [7] -0.021 | [8] 0.061 | barasertib 0.012 | [3] 0.177 | volasertib -0.223 | [9] -0.023 | [11] -0.016 | [12] -0.045 | [4] 0.119 | [13] 0.039

SMG9 (UniProt Q9H0W8)
inactive: [1] 0.025 | [6] -0.234 | [2] -0.066 | Nexturastat A 0.043 | vemurafenib 0.011 | [7] 0.274 | [8] 0.144 | givinostat 0.065 | barasertib 0.044 | volasertib -0.072 | epoxomicin -0.02 | [10] -0.114 | [11] 0.065 | [12] 0.05 | rosiglitazone -0.03 | [4] 0.144 | [13] -0.036

SMTN isoform 6 (UniProt P53814)
inactive: [1] 0.185 | [6] -0.01 | Nexturastat A -0.389 | vemurafenib -0.075 | [7] -0.003 | givinostat -0.13 | volasertib -0.23 | epoxomicin -0.095 | [10] -0.204 | [12] 0

SNAP23 isoform 2 (UniProt O00161)
inactive: [1] 0.294 | [6] -0.081 | [2] 0.065 | Nexturastat A 0.078 | vemurafenib -0.203 | [7] -0.04 | [8] 0.051 | givinostat -0.079 | [3] 0.161 | volasertib 0.054 | epoxomicin 0.056 | [10] 0.077 | [12] 0.09 | [4] -0.097

SMDT1 (UniProt Q9H4I9)
inactive: [1] 0.137 | [2] 0.033 | Nexturastat A -0.015 | vemurafenib 0.037 | [8] -0.127 | barasertib -0.021 | [3] 0.08 | epoxomicin -0.064 | [11] -0.044 | [12] 0.108 | [4] 0.028 | [13] 0.01
